Source: article PMC7901769
These are yes or no findings as the source states them, for the method shown. Some results given as binding are weak or reduced against the parent protein; the word gives no strength.

Sequences of proteins named here, by UniProt entry; tags and fusion partners are left off.
UniProt O00399: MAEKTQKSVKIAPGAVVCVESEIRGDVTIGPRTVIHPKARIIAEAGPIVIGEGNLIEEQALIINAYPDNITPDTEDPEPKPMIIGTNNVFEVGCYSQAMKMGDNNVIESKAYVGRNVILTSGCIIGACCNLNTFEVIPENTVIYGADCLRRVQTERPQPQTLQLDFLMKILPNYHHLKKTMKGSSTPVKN

Tests used:
[1] = target: T1, human TMEM39A second cytoplasmic loop domain (337-420 a.a.) (human) (UniProt Q9NV64); assay: two-hybrid; verification by co-transformation of bait (pGBKT7) and prey (pGADT7) vectors, yeast colony growth
T1 sequence: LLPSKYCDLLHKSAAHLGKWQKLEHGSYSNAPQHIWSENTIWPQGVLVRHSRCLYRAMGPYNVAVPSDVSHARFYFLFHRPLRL

[2] = target: T1, human TMEM39A second cytoplasmic loop domain (337-420 a.a.) (human); assay: two-hybrid; library screen: TMEM39A loop domains in pGBKT7 as bait against a normalized universal human cDNA library (Clontech), Matchmaker Gold Yeast Two-Hybrid System

Substance: human DCTN6 full length (1-190 a.a.) (from UniProt O00399 1-190)
- binding [1]: binds
- binding [2]: binds
